Measurements as given in article PMC6234864.
No constants are given. Whether binding was seen depends on the method and setting. In cells and extracts the contact can be indirect. A yes stands for co-enrichment or nearness to the bait. Other partners may have been found.

Key:
[1] = target: Pas3-mCherry (Cryptococcus neoformans); assay: affinity purification with mass spectrometry; Co-IP/MS from protein extract of the Pas3-mCherry strain with RFP trap (ChromoTek); WT XL280 without tag as negative control
[2] = target: Pas3-2×FLAG (Cryptococcus neoformans); assay: affinity purification with mass spectrometry; Co-IP/MS from protein extract of the Pas3-2×FLAG strain with FLAG trap (Sigma); strain with the 2×FLAG tag alone and untagged WT as negative controls

binding [1]: binds
binding [2]: binds
B1: Bre1 (protein, UniProt P0CQ62 1-820)
chain: MNADLKRVRENTLDDSPSPSAKRRLNSNASSPIQPSDDEGMAEWMKIVEVKRKEAIYRQMLEYRRISEHETKRANDLEAQRRVLEASFHAVELCWTQIVAAVRDLAGAENLQLKEEEVLEPLLDPSTPVPELEKALRSRLPTTRQLVTRFVDLVAHNATRPASEADLQARCLKLEAEASALRSNSKLLESEISALKGSRDEAQRDLQRIRKALDRERMEHGKAQEEWKEERTRGGQATPNLRANGSGHSTPNGKVEADKKFYSGAGPSMAGVLQDTSELEQLAASRLKQLEQLRFEQTQLQQEVDRLKILANHPSEAALRESPFFQVYLHQLSTSINRAESLQTRFTATESKLDQLRDSNGEFREAVLAEARGQTETLRAQMAKKDSDIARLRGQRDELNSEIMERRAKEVEKCKYTEQIENLANSRQERISFLTSEVRRLKGKLAAAHSSDGYLSFLKESGIDGDYVKDLEAKVVTSQDQINALTSQLERVSSDTAAAKSETEVRTELESAKRLLARYERILGPNPEAAEDVRYLSQQLEKKEKERASLEMKLEEAEAATNALYSEVEGLSKLWEALDQTVKSKVLELRDGEQKITRLATEKAKADNKYFAAMRAKEAVDMEAKAAQRSVEKQLRLLERAQEVETSLRSQITANEKGLTALKNNALDLQNQLATVVAEKTQLELRLQQSQNALVEAQQIMHQRVAEAIAEKEARAKLQDEADGQMKIIKKLKERQDAVAAASQTGMSDHEWAITQERDKLLKLLKCSCCEQNFKQQVIVKCMHTFCKQCLEQRIASRQRKCPACGLAFAKEDIQTLYWQ
